Like-named read-outs stand apart in the source and are kept apart here. Results are given in words; binding and its absence hold for the method and conditions named. Binding seen in cells or lysates may run through a third protein. Some binding calls cover weakened binding; strength is not graded here. For some assays here: Tags and fused reporters may be left off the sequences shown.
T1: Flag-RUFY4, transduced into mature osteoclasts (mouse) (UniProt Q3TYX8)
T1 sequence: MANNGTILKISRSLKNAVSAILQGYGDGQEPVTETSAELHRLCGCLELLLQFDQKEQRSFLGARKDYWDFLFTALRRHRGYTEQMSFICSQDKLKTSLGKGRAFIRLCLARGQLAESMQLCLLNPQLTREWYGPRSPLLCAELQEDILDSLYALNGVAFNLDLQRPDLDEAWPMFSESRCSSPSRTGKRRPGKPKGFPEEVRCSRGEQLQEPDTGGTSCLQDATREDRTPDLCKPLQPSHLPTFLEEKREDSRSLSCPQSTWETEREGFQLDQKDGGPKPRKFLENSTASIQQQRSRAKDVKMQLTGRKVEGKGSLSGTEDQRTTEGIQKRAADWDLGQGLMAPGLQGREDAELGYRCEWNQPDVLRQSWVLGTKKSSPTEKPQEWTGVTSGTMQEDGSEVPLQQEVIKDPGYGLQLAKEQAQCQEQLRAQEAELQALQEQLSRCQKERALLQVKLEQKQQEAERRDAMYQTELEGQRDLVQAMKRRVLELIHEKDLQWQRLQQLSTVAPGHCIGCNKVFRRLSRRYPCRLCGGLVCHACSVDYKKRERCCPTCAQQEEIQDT

Sequences of proteins named here, by UniProt entry; tags and fusion partners are left off.
UniProt P51150: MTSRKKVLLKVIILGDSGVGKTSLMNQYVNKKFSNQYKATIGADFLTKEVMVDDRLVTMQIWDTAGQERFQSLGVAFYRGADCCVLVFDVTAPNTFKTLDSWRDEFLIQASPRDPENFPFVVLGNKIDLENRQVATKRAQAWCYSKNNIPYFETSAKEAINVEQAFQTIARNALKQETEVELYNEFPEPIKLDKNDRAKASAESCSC

T2: RUN and FYVE domain-containing protein 4 (RUFY4), full length, expressed in HEK293T cells (mouse) (UniProt Q3TYX8)
T2 sequence: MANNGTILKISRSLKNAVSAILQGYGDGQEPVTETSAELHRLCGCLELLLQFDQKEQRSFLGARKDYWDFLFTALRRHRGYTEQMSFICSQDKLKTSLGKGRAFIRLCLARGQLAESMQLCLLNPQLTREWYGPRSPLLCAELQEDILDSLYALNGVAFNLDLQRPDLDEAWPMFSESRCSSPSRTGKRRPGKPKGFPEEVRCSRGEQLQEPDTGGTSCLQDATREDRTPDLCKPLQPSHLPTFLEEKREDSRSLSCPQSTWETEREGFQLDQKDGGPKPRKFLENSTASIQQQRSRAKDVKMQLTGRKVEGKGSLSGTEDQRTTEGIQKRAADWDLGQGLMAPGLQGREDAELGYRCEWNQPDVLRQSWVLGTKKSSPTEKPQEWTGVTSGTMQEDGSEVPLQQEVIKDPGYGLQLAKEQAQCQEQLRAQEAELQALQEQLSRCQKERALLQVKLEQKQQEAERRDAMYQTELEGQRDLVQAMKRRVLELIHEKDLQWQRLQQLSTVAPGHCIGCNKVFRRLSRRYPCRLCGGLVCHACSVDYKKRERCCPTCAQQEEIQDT


Key:
[1] = molecular target: T1, Flag-RUFY4, transduced into mature osteoclasts (mouse); experiment: co-IP; mature wild-type mouse osteoclasts transduced with Flag-RUFY4; endogenous Rab7 and LAMP2 detected; RIPA lysate; immunoblot
[2] = molecular target: T2, RUN and FYVE domain-containing protein 4 (RUFY4), full length, expressed in HEK293T cells (mouse); experiment: co-IP; HEK293T cells transfected to co-express the indicated proteins; lysed in RIPA buffer; lysates incubated with primary antibodies overnight, then protein A-agarose 1 h at 4 °C; immunoblot
[3] = molecular target: T2, RUN and FYVE domain-containing protein 4 (RUFY4), full length, expressed in HEK293T cells (mouse); experiment: as above; remark: listed apart in the source

binding [1]	binding [3]	Molecule	also measured
binds		Rab7, endogenous in mouse osteoclasts (from UniProt P51150 1-207)	
	binds	RUN and FYVE domain-containing protein 4 (RUFY4), full length, expressed in HEK293T cells (protein, UniProt Q3TYX8-1 1-563) MANNGTILKISRSLKNAVSAILQGYGDGQEPVTETSAELHRLCGCLELLLQFDQKEQRSFLGARKDYWDFLFTALRRHRGYTEQMSFICSQDKLKTSLGKGRAFIRLCLARGQLAESMQLCLLNPQLTREWYGPRSPLLCAELQEDILDSLYALNGVAFNLDLQRPDLDEAWPMFSESRCSSPSRTGKRRPGKPKGFPEEVRCSRGEQLQEPDTGGTSCLQDATREDRTPDLCKPLQPSHLPTFLEEKREDSRSLSCPQSTWETEREGFQLDQKDGGPKPRKFLENSTASIQQQRSRAKDVKMQLTGRKVEGKGSLSGTEDQRTTEGIQKRAADWDLGQGLMAPGLQGREDAELGYRCEWNQPDVLRQSWVLGTKKSSPTEKPQEWTGVTSGTMQEDGSEVPLQQEVIKDPGYGLQLAKEQAQCQEQLRAQEAELQALQEQLSRCQKERALLQVKLEQKQQEAERRDAMYQTELEGQRDLVQAMKRRVLELIHEKDLQWQRLQQLSTVAPGHCIGCNKVFRRLSRRYPCRLCGGLVCHACSVDYKKRERCCPTCAQQEEIQDT	

Continued, molecule first:

Molecule	binding [1]	binding [3]	also measured
CFP-Rab7, expressed in HEK293T cells (from UniProt P51150 1-207)			binding [2]: binds
LAMP2, expressed in HEK293T cells (protein, UniProt P17047 26-415) LIVNLTDSKGTCLYAEWEMNFTITYETTNQTNKTITIAVPDKATHDGSSCGDDRNSAKIMIQFGFAVSWAVNFTKEASHYSIHDIVLSYNTSDSTVFPGAVAKGVHTVKNPENFKVPLDVIFKCNSVLTYNLTPVVQKYWGIHLQAFVQNGTVSKNEQVCEEDQTPTTVAPIIHTTAPSTTTTLTPTSTPTPTPTPTPTVGNYSIRNGNTTCLLATMGLQLNITEEKVPFIFNINPATTNFTGSCQPQSAQLRLNNSQIKYLDFIFAVKNEKRFYLKEVNVYMYLANGSAFNISNKNLSFWDAPLGSSYMCNKEQVLSVSRAFQINTFNLKVQPFNVTKGQYSTAQDCSADEDNFLVPIAVGAALGGVLILVLLAYFIGLKRHHTGYEQF		binds	
LAMP2, endogenous in mouse osteoclasts (protein, UniProt P17047 26-415) LIVNLTDSKGTCLYAEWEMNFTITYETTNQTNKTITIAVPDKATHDGSSCGDDRNSAKIMIQFGFAVSWAVNFTKEASHYSIHDIVLSYNTSDSTVFPGAVAKGVHTVKNPENFKVPLDVIFKCNSVLTYNLTPVVQKYWGIHLQAFVQNGTVSKNEQVCEEDQTPTTVAPIIHTTAPSTTTTLTPTSTPTPTPTPTPTVGNYSIRNGNTTCLLATMGLQLNITEEKVPFIFNINPATTNFTGSCQPQSAQLRLNNSQIKYLDFIFAVKNEKRFYLKEVNVYMYLANGSAFNISNKNLSFWDAPLGSSYMCNKEQVLSVSRAFQINTFNLKVQPFNVTKGQYSTAQDCSADEDNFLVPIAVGAALGGVLILVLLAYFIGLKRHHTGYEQF	binds		

Source: article PMC11094054
